In PubChem BioAssay AID504467 (National Center for Advancing Translational Sciences (NCATS), 2011):
The campaign covered roughly 330,000 compounds. About 7,700 (2.3%) were called active. The shares of active, inactive and inconclusive entries below differ from those in the screen. The call rests on the fitted dose curve; in most records, active means well fitted inhibition curve with a large enough effect; inconclusive means small, poorly fitted or top-dose-only effect, or effect the other way; inactive means flat fitted curve, though single readings scatter. Potencies of inconclusive entries are doubtful fits and often do not repeat.

test: qHTS screen for small molecules that inhibit ELG1-dependent DNA repair in human embryonic kidney (HEK293T) cells expressing luciferase-tagged ELG1; settings: HEK293T ELG1-luciferase reporter, luminescence, 16 h, DNA damage induced by 5-fluorouridine; activity change, negative = inhibition: at 46.1 µM (top of the series); further: nearly all actives have a fitted effect of over 55% in size
Summary of the method: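 Cells (2,000 per well) received 5-fluorouridine plus test compound or DMSO and were incubated 16 hr at 37 °C, 5% CO2. Luciferase activity was read by luminescence 30 min after ONE-Glo addition; signal suppression marked inhibition of damage-induced ELG1 function.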
On the % scale 0 is the no-effect control and ±100 the full control effect; potency means the concentration at half of the fitted maximal effect.

| Structure (SMILES) | Potency | activity change, negative = inhibition |
| --- | --- | --- |
| CCOC(=O)c1c(C2CC2)csc1NC(=O)COC(=O)c1cnc(Cl)c(Cl)c1 | inconclusive: 32.6 µM [activator, partial curve, poor fit] |  |
| CCOc1cc(NC(=S)NCCc2ccccc2)c(OCC)cc1NC(C)=O | inconclusive: 16.4 µM [inhibitor, partial curve, poor fit] |  |
| CC1=C(C#N)C(c2cn(-c3ccccc3)nc2-c2cccs2)C(C#N)=C(C)N1 |  | inactive: -23.6% |
| Cn1ncc2cc(NC(N)=S)ccc21 |  | inactive: -8.75% |
| CC(C)OC(=O)c1ccc(COC(=O)c2cccc(-c3nnc(-c4ccccc4)o3)c2)cc1 | inconclusive: 9.2 µM [activator, partial curve] |  |
| Nc1ccc(-n2nnnc2CN2CCOCC2)cc1 | inconclusive: 16.4 µM [activator, partial curve] |  |
| COc1ccc(/C=C/C(=O)OCC(=O)Nc2ccc(OC)c(S(=O)(=O)N3CCCCC3)c2)cc1 |  | inactive: 16.2% |
| CCOc1ccc2oc(C(=O)NCC3CCCO3)c(C)c2c1 (stereo not given) | inconclusive: 14.6 µM [activator, partial curve] |  |
| CCOc1ccc(S(=O)(=O)N2CCC(C(=O)NCCN3CCOCC3)CC2)cc1C |  | inactive: 24.5% |
| Cc1ccc2c(c1)N=C(c1ccccc1)CC(C(Cl)Cl)=N2 | inconclusive: 3.26 µM [activator, partial curve] |  |
| Cc1cc(Cl)c(OCCOCCN2CCC(C)CC2)c(Br)c1 |  | inactive: 9.87% |
| CC(C)N1C(=O)CN(C2CCCCCC2)C(=O)C1c1ccccc1F (stereo not given) | inconclusive: 16.4 µM [activator, partial curve] |  |
| CC(C)CCn1c(CN2CCN(C(=O)c3ccco3)CC2)nc2c1c(=O)n(C)c(=O)n2C | inconclusive: 14.6 µM [inhibitor, partial curve] |  |
| N#Cc1ccc(CN2CCN(C(=O)CN3C(=O)NC4(CCCC4)C3=O)CC2)cc1 |  | inactive: 1.11% |
| COc1ccc(NC(=O)CSc2ncccc2C(=O)OC(C)C)cc1OC | inconclusive: 1.46 µM [inhibitor, partial curve] |  |
| CCN(CC)P(=O)(Nc1cccc(C(F)(F)F)c1)c1ccc(N(C)C)cc1NC(=O)c1ccco1 (stereo not given) | active: 20.6 µM |  |
| CN1/C(=C/C=N/n2cnnc2)C(C)(C)c2ccccc21 |  | inactive: -3.65% |
| CN(C)S(=O)(=O)c1ccc2[nH]cc(/C=C/c3nc4ccccc4c(=O)n3-c3ccccc3)c2c1 | inconclusive: 6.51 µM [inhibitor, single point] |  |
| CCc1ccc(NC(=S)N2CCCC(C(F)(F)F)C2)cc1 (stereo not given) | inconclusive: 13 µM [activator, partial curve, poor fit] |  |
| CCc1nnc(NC(=O)c2ccc(C)o2)s1 | inconclusive: 18.3 µM [activator, partial curve] |  |
| COC(=O)c1cc(CNC(=O)C2CC(=O)N(c3ccc4c(c3)OCCO4)C2)ccc1OC (stereo not given) | inconclusive: 3.66 µM [inhibitor, partial curve] |  |
| CN(C)CCNC(=S)Nc1ccc(F)c(F)c1F |  | inactive: 5.34% |
| COc1ccc2[nH]c3c(=O)n4c(nc3c2c1)SCC4 | inconclusive: 23.1 µM [activator, single point] |  |
| CC(C)Sc1nc2ccccc2n1CC(=O)NCc1ccc2c(c1)OCO2 | inconclusive: 13 µM [inhibitor, partial curve, poor fit] |  |

| Structure (SMILES) | Potency | activity change, negative = inhibition |
| --- | --- | --- |
| O=C1C2C(C(=O)N1/N=C/c1cc([N+](=O)[O-])c(O)cc1O)C1C=CC2C12CC2 (stereo not given) |  | inactive: -26.9% |
| CCOC(=O)[C@H]1[C@H]2COc3ccc(OC)cc3[C@@H]2N2C(=O)c3cc(OC)c(OC)cc3NC(=O)[C@@]12C |  | inactive: 18.6% |
| Cn1c(C(=O)Nc2ccc3c(c2)OCCO3)cc2sccc21 | inconclusive: 1.46 µM [activator, partial curve] |  |
| CC(=O)CCc1ccc(OCCCCN2CCC(Cc3ccccc3)CC2)cc1 | inconclusive: 29.1 µM [inhibitor, single point] |  |
| Cc1cccc(NC(=O)c2cc(-c3cc(C)cc(C)c3O)n[nH]2)c1 |  | inactive: -24.3% |
| O=C(NN1C(=O)c2ccccc2NC1c1ccccn1)c1ccccc1 (stereo not given) |  | inactive: 12% |
| CCCCn1c2ccc(F)cc2c2nnc(NN)nc21 | inconclusive: 29.1 µM [inhibitor, single point] |  |
| COCCNC(=O)c1cccc(OC2CCN(Cc3ccc(OC(F)F)cc3)CC2)c1 |  | inactive: -17.5% |
| CCCCN(CC)CCNC(=O)Cn1cc2c(n1)-c1c(oc(C(=O)N3CCCC3)c1C)CC2 |  | inactive: 9.33% |
| COc1ccccc1OCCNC(=O)c1ccc(C)c(S(=O)(=O)N2CCOCC2)c1 | inconclusive: 1.46 µM [inhibitor, full curve] |  |
| CN(C(=O)CSc1cn(CC(=O)N2CCOCC2)c2ccccc12)c1ccccc1 | inconclusive: 16.4 µM [activator, single point] |  |
| O=c1[nH]c2cc3c(cc2cc1CN(Cc1cccs1)Cc1nnnn1Cc1ccco1)OCCO3 | inconclusive: 23.1 µM [inhibitor, single point] |  |
| O=c1[nH]nc(N/N=C/c2ccccc2OC(F)F)c(=O)[nH]1 |  | inactive: -17.2% |
| CCCCCCCC(=O)NC1=NC(=O)C(C)(C)S1 | inconclusive: 29.1 µM [inhibitor, single point] |  |
| COc1ccc(OCC(=O)N2CCCC(CO)(CCOc3ccccc3)C2)cc1 (stereo not given) | inconclusive: 20.6 µM [inhibitor, partial curve] |  |
| O=C(N/N=C/c1ccc([N+](=O)[O-])cc1)c1ccc2nc[nH]c2c1 | inconclusive: 29.1 µM [inhibitor, single point] |  |
| Cc1cc(NC(=O)c2coc(=O)c(Br)c2)ccc1C(C)C | inconclusive: 29.1 µM [activator, single point] |  |
| CCCCNc1ccc(C(F)(F)F)cc1S(=O)(=O)NCCc1ccc(F)cc1 |  | inactive: -16.3% |
| Cc1cccc(-n2c(C)cc(C(=O)NC3CCCCC3)c2C)c1 | inconclusive: 2.59 µM [activator, full curve] |  |
| COc1ccc([C@H]2Oc3cc(O)cc(O)c3C(=O)C2[C@@H]2C(=O)c3c(O)cc(O)cc3O[C@@H]2c2ccc(OC)cc2)cc1 (stereo not given in full) |  | inactive: 0.365% |
| Cc1cccc(Nc2nc(N)nc(CC(=O)CSc3ccc(Cl)cc3)n2)c1 | inconclusive: 29.1 µM [activator, single point] |  |
| CCOc1cc(/C=C(\C#N)C(=O)Nc2cccc(C(=O)O)c2)ccc1OCc1ccccc1Cl | inconclusive: 13 µM [activator, partial curve] |  |
| CCOC(=O)c1ccccc1NC(=O)C1CCN(c2ncnc3sc(C)c(C)c23)CC1 | inconclusive: 2.82 µM [inhibitor, full curve] |  |
| O=C1N=NC(=O)N1c1ccccc1 |  | inactive: 19.9% |

| Structure (SMILES) | Potency | activity change, negative = inhibition |
| --- | --- | --- |
| CCc1nc2ccccc2c(C(=O)OCC(=O)NC2CCCC2)c1C | inconclusive: 16.4 µM [inhibitor, single point] |  |
| O=C1NC(c2cccc(Br)c2)=N/C1=C\c1ccco1 | inconclusive: 20.6 µM [activator, partial curve] |  |
| CCCC1CC(C(=O)NC(C(C)Cl)C2OC(SC)C(O)C(O)C2O)N(C)C1 (stereo not given) | inconclusive: 0.411 µM [activator, partial curve, poor fit] |  |
| O=C(CN1C(=O)NC(c2ccccc2)(c2ccccc2)C1=O)NCc1ccco1 |  | inactive: 2.84% |
| Cc1ccc2c(CC(=O)Nc3ccc(N4CCN(C)CC4)cc3C)coc2c1 |  | inactive: 13.4% |
| CC(C)C(=O)Nc1nc2cc3c(cc2s1)OCO3 | inconclusive: 10.3 µM [activator, partial curve] |  |
| CCN(CC)S(=O)(=O)c1ccc(OC)c(NC(=O)c2ccc3c(c2)OCO3)c1 | inconclusive: 20.6 µM [inhibitor, partial curve] |  |
| COc1cccc2sc(NC(=O)c3ccc(Br)s3)nc12 | inconclusive: 9.2 µM [activator, partial curve] |  |
| Nn1c(SCC(=O)NCCCc2ccccc2)nnc1-c1cccnc1 |  | inactive: -5.4% |
| CCOC(=O)c1ccccc1OCc1cc(/C=N/n2cnnc2)ccc1OC | inconclusive: 35.5 µM [inhibitor, single point] |  |
| Cc1nn2c(c1-c1ccc(Cl)cc1)N=C(c1ccco1)CC2c1ccccc1 (stereo not given) | inconclusive: 12.6 µM [inhibitor, single point] |  |
| O=C(Nc1ccccc1)N(Cc1cccs1)C1CCCC1 |  | inactive: -8.06% |
| Cc1ccc(NC(=O)Nc2ccc3c(c2)OCO3)c(OC(F)F)c1 | inconclusive: 7.3 µM [activator, partial curve] |  |
| CC[N+]1(CC)CC2=Cc3c(ccc4ccccc34)C(C)C2C1 (stereo not given) | inconclusive: 4.61 µM [inhibitor, full curve, poor fit] |  |
| Cc1cccc(N=C2C(=O)Nc3c(Cl)cccc32)c1 | inconclusive: 35.5 µM [activator, single point] |  |
| Cc1ccccc1OCc1nnc(SCCN2CCCC2)n1-c1ccccc1 |  | inactive: 9.61% |
| CCCc1nc2oc3c(NCCCN(C)C)ncnc3c2c2c1CCCC2 | inconclusive: 20.6 µM [activator, single point] |  |
| COc1ccc(N2CCN(S(=O)(=O)CCNC(=O)C34CC5CC(CC(C5)C3)C4)CC2)cc1 | inconclusive: 25.9 µM [inhibitor, partial curve, poor fit] |  |
| CCC(C)c1ccccc1NC(=O)COC(=O)c1ccc(N2CCCC2)c([N+](=O)[O-])c1 (stereo not given) |  | inactive: -25.2% |
| O=S(=O)(c1ccc2c(c1)OCCO2)N(Cc1ccc(F)cc1)Cc1nnc(-c2cccs2)o1 | inconclusive: 18.4 µM [inhibitor, single point] |  |
| CN=C1S/C(=C\c2cc(C)n(-c3ccccc3F)c2C)C(=O)N1C | inconclusive: 0.92 µM [activator, partial curve] |  |
| Cc1cccc(NC(=O)CSc2nnc(-c3ccco3)o2)c1 | inconclusive: 20.6 µM [activator, single point] |  |

Quoted from the listing.
In Potency, O=C1NC(c2cccc(Br)c2)=N/C1=C\c1ccco1 shows inconclusive: 20.6 µM [activator, partial curve]
In activity change, negative = inhibition, O=C(Nc1ccccc1)N(Cc1cccs1)C1CCCC1 shows inactive: -8.06%
In Potency, Cc1cccc(NC(=O)CSc2nnc(-c3ccco3)o2)c1 shows inconclusive: 20.6 µM [activator, single point]
